# According to patent US11453702B2 (priority 2018, dated 2022):
# Assay: general procedure: Fmoc solid-phase peptide synthesis; CTC Resin (1.17 mmol/g)
# Conditions: conjugation step, bicyclic, sequence written open
substance,measurement,setting,value
MMAE-PABC-Cit-Val-Glutaryl-BCY8234,conjugation yield,,45.19% yield
same,final purity (method not given),run 1,99.30% purity
same,final purity (method not given),run 2,99.60%
